# Laboratory results as given in PMC7819943, “Rice protein-binding microarrays: a tool to detect cis-acting elements near promoter regions in rice”.
# Protein sequences, listed by entry. Tags and fused reporters are not part of them.
# UniProt Q0JBA9, entry or part of it: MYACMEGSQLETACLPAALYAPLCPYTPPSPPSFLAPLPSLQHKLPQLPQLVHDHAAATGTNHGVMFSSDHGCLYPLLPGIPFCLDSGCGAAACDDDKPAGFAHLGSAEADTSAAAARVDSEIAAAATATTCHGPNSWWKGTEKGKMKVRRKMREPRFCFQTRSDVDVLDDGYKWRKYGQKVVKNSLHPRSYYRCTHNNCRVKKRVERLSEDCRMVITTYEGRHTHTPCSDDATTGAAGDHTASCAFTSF
# The other results are listed elsewhere or left out.
# Biological target: OsWRKY34 (Oryza sativa, UniProt Q0JBA9 1-250)
# Assay: protein-binding microarray (RPBM); PBS, 2% BSA, 51.3 ng/ul salmon testes DNA, 50 uM zinc acetate, 200 nM TF, 25 C, 1 h; high values mean tight binding
# Conditions: protein: recombinant; tags: N-terminal polyhistidine and DsRed monomer fusion (pET32a); label: CyDye5-dUTP incorporated in the synthesized complementary strand; 3' TTTTT single-stranded linker to array surface; dsDNA, one strand shown
# Method in brief: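 The binding signal is fluorescence intensity per feature, in arbitrary units, read on an Axon 4000B scanner. Polyhistidine- and DsRed-tagged transcription factors (N-terminal fusions) from E. coli BL21-CodonPlus were purified on Ni–NTA and applied at 200 nM for 1 h at 25 °C to a double-stranded, BSA-blocked custom Agilent array in buffer with 50 µM zinc acetate.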
row,Sequence,binding signal
1,ATTCTTTAGTTTGTCTACTTGCATGGTTGTTGTAAAGTCACGGAGTCACCTAGTGCAG,15200 fluorescence intensity (a.u.)
2,GTCGAGAGATCGCCTCTTCTTCTGCTTGCCCCGCCGCCTTCGGAGTCACCTAGTGCAG,8180 fluorescence intensity (a.u.)
3,TCTCCTATCCAGTTGGATTCCCAAAATTTCGCCTTTCGTCCGGAGTCACCTAGTGCAG,8070 fluorescence intensity (a.u.)
4,CTGACGTGGCAGTGTTGACCTGATTTTTGTCCCACGTGGCCGGAGTCACCTAGTGCAG,10400 fluorescence intensity (a.u.)
5,TTTGGTAGGGATGTTGTGTTTTCTTTGCGAACACCGGTGACGGAGTCACCTAGTGCAG,12800 fluorescence intensity (a.u.)
6,CTTTCGCCTTTTTTTTCACTTTTCTTTTTGTGGTTGTGGGCGGAGTCACCTAGTGCAG,9790 fluorescence intensity (a.u.)
7,TGCCTTTCACCCTGGGTTATGCGTATCCTTATCTGAATATCGGAGTCACCTAGTGCAG,9680 fluorescence intensity (a.u.)
8,TGCCCTAGTCGCGGCGTTCTGCTGCCCTCGCCGCCGTCCCCGGAGTCACCTAGTGCAG,8690 fluorescence intensity (a.u.)
9,TGTGCCGCTCCGTCGTGCTCTTCGTCGCGCCACTCATCCTCGGAGTCACCTAGTGCAG,9080 fluorescence intensity (a.u.)
10,GACCGTGCCGTCGTAATCACACTGCCCTGCTGACTAATCTCGGAGTCACCTAGTGCAG,9260 fluorescence intensity (a.u.)
11,GATCTCTCCATCTTTTGGCCACCAACTCCACACACTCCAACGGAGTCACCTAGTGCAG,9260 fluorescence intensity (a.u.)
12,ACCCTGCCACGTCATATCAAACGGCACATATCTCACAATCCGGAGTCACCTAGTGCAG,8260 fluorescence intensity (a.u.)
13,GCTCCGAATGTTATGCTTTCTTTTTTTTAGAACCGAGTCACGGAGTCACCTAGTGCAG,8580 fluorescence intensity (a.u.)
14,ACTTACATGTGGGCCCATAACCTTTTTACTTTTTATTTTGCGGAGTCACCTAGTGCAG,9360 fluorescence intensity (a.u.)
15,TCTCTCTTTTTTCCCCTGATGTAAAGTTAGTGCATGATGACGGAGTCACCTAGTGCAG,8220 fluorescence intensity (a.u.)
16,TGCATTGCCTATCTCTATATATCCATCCACCCATCTCATCCGGAGTCACCTAGTGCAG,8060 fluorescence intensity (a.u.)
17,GCTCAACTTTGATCGTATGTCTTATTTGAAATTTTTTTATCGGAGTCACCTAGTGCAG,9700 fluorescence intensity (a.u.)
18,TATTCTTGTCTATCATACTCTAGTTATTTACTCAAACTGTCGGAGTCACCTAGTGCAG,8300 fluorescence intensity (a.u.)
19,TTTTTCTCGTTTGCCGTGTCACCGCGTGAGTTGCGCGGGGCGGAGTCACCTAGTGCAG,11700 fluorescence intensity (a.u.)
20,CCCTCCGCCACCCAAACCCCACCTGCCCGTCTCCATCGCCCGGAGTCACCTAGTGCAG,9990 fluorescence intensity (a.u.)
21,GTGCAGGACTGTTTTACATACTCCACATACTTTGCCATTACGGAGTCACCTAGTGCAG,10000 fluorescence intensity (a.u.)
22,AATTTGCACAGTCGATTGTTTAGCCTGACACGAGTCTTCACGGAGTCACCTAGTGCAG,9640 fluorescence intensity (a.u.)
23,ACACTTGGCATTAATCTAATTTAACTTTTTTTTCTTTATCCGGAGTCACCTAGTGCAG,8440 fluorescence intensity (a.u.)
24,GCCTGCGCCTGCGCCGCCGGCGACCTCCATCCCGTCCCCGCGGAGTCACCTAGTGCAG,10300 fluorescence intensity (a.u.)
25,ACCACACACGGCGCACACACACGCGTACGCTACCACCAAACGGAGTCACCTAGTGCAG,8420 fluorescence intensity (a.u.)
26,CCTCGGTGTGCTTTGGGTGTTCGTCCGTGTTCTTGCCTTTCGGAGTCACCTAGTGCAG,8060 fluorescence intensity (a.u.)
27,GATAAGTGGCACGTGGGGATAGGGGAAATTCTCGCGAAAACGGAGTCACCTAGTGCAG,8200 fluorescence intensity (a.u.)

# 2 records picked at random from those above:
row,Sequence,binding signal
16,TGCATTGCCTATCTCTATATATCCATCCACCCATCTCATCCGGAGTCACCTAGTGCAG,8060 fluorescence intensity (a.u.)
2,GTCGAGAGATCGCCTCTTCTTCTGCTTGCCCCGCCGCCTTCGGAGTCACCTAGTGCAG,8180 fluorescence intensity (a.u.)

# Going on with the list.

row,Sequence,binding signal
1,TTTTTTTCCCTTGTACCATTAGAACATGGCCATGCCACATCGGAGTCACCTAGTGCAG,8030 fluorescence intensity (a.u.)
2,TGATGTTCTTTTATTTTGTTTTTCTTTGCCAAATCTTAAACGGAGTCACCTAGTGCAG,8370 fluorescence intensity (a.u.)
3,TTTTTTCAGCATGTCTTGTTAAATTTTATCTCGTAGAGGTCGGAGTCACCTAGTGCAG,8660 fluorescence intensity (a.u.)
4,AATATATACGCCACGTGAACCACACCTTCTGTACGAAATTCGGAGTCACCTAGTGCAG,9770 fluorescence intensity (a.u.)
5,GGCGGCGGGGTGGGACGACGAAGAGCAGCAGCTCCTTGGACGGAGTCACCTAGTGCAG,9350 fluorescence intensity (a.u.)
6,TTGGGGTTGGCGGGAATTAGGGTTTCGTTGGTGGGGTTTTCGGAGTCACCTAGTGCAG,25900 fluorescence intensity (a.u.)
7,ATACCCCTACCAACGTATCCATTTTGATAATTCATACTCTCGGAGTCACCTAGTGCAG,9450 fluorescence intensity (a.u.)
8,CTTTGTTTCATGTGCACATCAGTAGCCATTGCTAAATATGCGGAGTCACCTAGTGCAG,10200 fluorescence intensity (a.u.)
9,CCTTTTCCTACCTCGCCTCGCCGCCCGCACCGAGCAAACTCGGAGTCACCTAGTGCAG,9550 fluorescence intensity (a.u.)
10,GAGTCGTCGCGGTCACTCGTCCGTATCTGCCTCGGTGGGGCGGAGTCACCTAGTGCAG,11600 fluorescence intensity (a.u.)
11,TCCTTTATTTTATTTTGTCTAAGCAAATCTCAGCCATCCGCGGAGTCACCTAGTGCAG,8370 fluorescence intensity (a.u.)
12,AATCAAGACACACTTTACGCTGGGCTTGGGCTGTTTTTACCGGAGTCACCTAGTGCAG,9100 fluorescence intensity (a.u.)
13,CTACCTAGGGTTTCTCGCCGCCTCGCATCCCCTCCTCCTCCGGAGTCACCTAGTGCAG,8790 fluorescence intensity (a.u.)
14,TTCGGCCCCACTCATATCAAGATGCGCCACTGGTTGACCTCGGAGTCACCTAGTGCAG,8040 fluorescence intensity (a.u.)
15,CCCGGCCACGTTTTCCTCACGCTCGCGCGCGCGCGCAACCCGGAGTCACCTAGTGCAG,8760 fluorescence intensity (a.u.)
16,CAATGTAAGTCATTCTAGCATTTCCCACATTCGTATTGATCGGAGTCACCTAGTGCAG,8730 fluorescence intensity (a.u.)
17,GTGCGAGCTGCGCCCGTGTGATGTGGGCGGGTGGGTGTTCCGGAGTCACCTAGTGCAG,16900 fluorescence intensity (a.u.)
18,TATATCTGCCTCTACCATCCATGCATGCAAGTTTCATCAACGGAGTCACCTAGTGCAG,8030 fluorescence intensity (a.u.)
19,TGGCAAGCTGGCAATCTGGCAGGCCCGGTCAAAGTTTGACCGGAGTCACCTAGTGCAG,14200 fluorescence intensity (a.u.)
20,AACACCACATCTCTCCATCTGATCGATCACCCGATCGCATCGGAGTCACCTAGTGCAG,8830 fluorescence intensity (a.u.)
21,GGACCACATGTATGTTGGCTTCTCTTCATCGTCGTCAGCGCGGAGTCACCTAGTGCAG,8780 fluorescence intensity (a.u.)
22,CCCTCGCGCTCTTCCATGTCCTGCCCATCTCCTGCCGCACCGGAGTCACCTAGTGCAG,11300 fluorescence intensity (a.u.)
23,CTCCATCCTCATCACGCATCTTCTTGCCATCCCGTCGCTCCGGAGTCACCTAGTGCAG,8660 fluorescence intensity (a.u.)
24,TTTTGTCTCTTTCTGCTGCTGGAGTAGTATTGTTCATTTACGGAGTCACCTAGTGCAG,9050 fluorescence intensity (a.u.)
25,ACCGTAACTGATAACTCTTCGTCCCATTTTAAATACAGCCCGGAGTCACCTAGTGCAG,9070 fluorescence intensity (a.u.)
26,AAGGCTGATCAATTTTTATCACCTTCGTTTTGTAATATACCGGAGTCACCTAGTGCAG,8440 fluorescence intensity (a.u.)
27,TTTACCTTTTACGTGTAGGATCCACTTTTACCTTCCATTCCGGAGTCACCTAGTGCAG,8280 fluorescence intensity (a.u.)
